In the supplement of paper PMC4604168 (melanoma cell lines):
The list shows a part of the results. Many values rest on one well or one pass, so single values are uncertain.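 The apoptosis fraction was the count of cleaved-PARP antibody-stained nuclei relative to all DNA-stained nuclei, imaged in 1,536-well plates. Screening doses were set so most cells survived, and baseline and induced cleaved-PARP levels vary greatly across cell lines.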

Experiments:
Test in all cases: cleaved PARP positive nuclei fraction relative to DMSO control; melanoma cells; higher = more apoptosis
Details in all cases: library dose: low library concentration; 72 h
COLO792 = test system: COLO792
COLO800 = test system: COLO800
COLO829 = test system: COLO829
G361 = test system: G361
IPC-298 = test system: IPC-298
IST-MEL1 = test system: IST-MEL1
LB2518-MEL = test system: LB2518-MEL
LOXIMVI = test system: LOXIMVI
MEL-HO = test system: MEL-HO

Row | SMILES | cleaved PARP positive nuclei fraction (COLO792) | cleaved PARP positive nuclei fraction (COLO800) | cleaved PARP positive nuclei fraction (COLO829) | cleaved PARP positive nuclei fraction (G361) | cleaved PARP positive nuclei fraction (IPC-298) | cleaved PARP positive nuclei fraction (IST-MEL1) | cleaved PARP positive nuclei fraction (LB2518-MEL) | cleaved PARP positive nuclei fraction (LOXIMVI) | cleaved PARP positive nuclei fraction (MEL-HO)
1 | N.N.[Cl][Pt][Cl] [cisplatin] + O=C(CCCCCCC(=O)Nc1ccccc1)NO [vorinostat] (first compound 1.6 µM, partner dose 0.08 µM) | 146% | 80.3% | 142% | 74.3% | 136% | 107% | 66.9% | 21.8% | 74%
2 | C[As](C)SC[C@H](NC(=O)CC[C@H](N)C(=O)O)C(=O)NCC(=O)O [Darinaparsin] + O=C(O)c1ccc(-c2c[nH]c3ncc(-c4ccccc4)cc23)cc1C1CCCC1 [GSK650394] (first compound 0.4 µM, partner dose 0.16 µM) | 67.1% | 65.8% | 66% | 152% | 122% | 136% | 64% | 94.4% | 291%
3 | C[As](C)SC[C@H](NC(=O)CC[C@H](N)C(=O)O)C(=O)NCC(=O)O [Darinaparsin] + CO[C@@H]1[C@H](N(C)C(=O)c2ccccc2)C[C@H]2O[C@]1(C)n1c3ccccc3c3c4c(c5c6ccccc6n2c5c31)C(=O)NC4 [Midostaurin] (first compound 0.4 µM, partner dose 0.08 µM) | 255% | 53.5% | 113% | 143% | 290% | 111% | 63.1% | 91% | 124%
4 | N.N.[Cl][Pt][Cl] [cisplatin] + NCC(=O)Nc1ccc(-n2nc(C(F)(F)F)cc2-c2ccc3c(ccc4ccccc43)c2)cc1 [OSU03012] (first compound 1.6 µM, partner dose 1 µM) | 244% | 109% | 137% | 94.3% | 47.2% | 47.8% | – | 43.7% | 69.5%
5 | C[As](C)SC[C@H](NC(=O)CC[C@H](N)C(=O)O)C(=O)NCC(=O)O [Darinaparsin] + C=CCn1c(=O)c2cnc(Nc3ccc(N4CCN(C)CC4)cc3)nc2n1-c1cccc(C(C)(C)O)n1 [MK1775] (first compound 0.4 µM, partner dose 0.02 µM) | 106% | 40.6% | 117% | 107% | 190% | 67.2% | 79.7% | 181% | 133%
6 | Cc1cc(Nc2cc(N3CCN(C)CC3)nc(Sc3ccc(NC(=O)C4CC4)cc3)n2)n[nH]1 [Tozasertib] + Cc1cc(SCc2sc(-c3ccc(C(F)(F)F)c(F)c3)nc2C)ccc1OCC(=O)O [GW0742] (first compound 0.006 µM, partner dose 2 µM) | 64.4% | 93.4% | 61.7% | 111% | 139% | 160% | – | 61.9% | –
7 | C[C@]12O[C@H](C[C@]1(O)CO)n1c3ccccc3c3c4c(c5c6ccccc6n2c5c31)CNC4=O [Lestaurtinib] + CO[C@@H]1[C@H](N(C)C(=O)c2ccccc2)C[C@H]2O[C@]1(C)n1c3ccccc3c3c4c(c5c6ccccc6n2c5c31)C(=O)NC4 [Midostaurin] (first compound 0.004 µM, partner dose 0.08 µM) | 212% | 93.5% | 128% | 120% | 89.6% | 91.2% | 62.3% | 360% | 62.5%
8 | C[C@]12O[C@H](C[C@]1(O)CO)n1c3ccccc3c3c4c(c5c6ccccc6n2c5c31)CNC4=O [Lestaurtinib] + COc1cc(Nc2ncc(F)c(Nc3ccc4c(n3)NC(=O)C(C)(C)O4)n2)cc(OC)c1OC [Tamatinib] (first compound 0.004 µM, partner dose 0.4 µM) | 156% | 68.2% | 95.8% | 82.3% | 61.7% | 240% | 114% | 204% | 89.6%
9 | Cn1cc(C2=C(c3cn(C4CCN(Cc5ccccn5)CC4)c4ccccc34)C(=O)NC2=O)c2ccccc21 [Enzastaurin] + Cn1cncc1[C@@](N)(c1ccc(Cl)cc1)c1ccc2c(c1)c(-c1cccc(Cl)c1)cc(=O)n2C [tipifarnib] (first compound 0.8 µM, partner dose 0.01 µM) | 84.5% | 140% | 48.1% | 94.4% | 166% | 94.3% | 80.5% | 75.4% | 43.6%
10 | C[As](C)SC[C@H](NC(=O)CC[C@H](N)C(=O)O)C(=O)NCC(=O)O [Darinaparsin] + CN(C)S(=O)(=O)c1ccc2c(c1)/C(=C/c1cc3c([nH]1)CCCC3)C(=O)N2 [SU6656] (first compound 0.4 µM, partner dose 0.4 µM) | 86.7% | 152% | 77.7% | 140% | 21.8% | 65.7% | 95.8% | 26.7% | 64.8%
11 | Clc1ccc(Nc2nnc(Cc3ccncc3)c3ccccc23)cc1 [vatalanib] + Cc1cc(SCc2sc(-c3ccc(C(F)(F)F)c(F)c3)nc2C)ccc1OCC(=O)O [GW0742] (first compound 2 µM, partner dose 2 µM) | 83.6% | 148% | 74.9% | 191% | 84% | 134% | – | 66.3% | –
12 | C[C@]12O[C@H](C[C@]1(O)CO)n1c3ccccc3c3c4c(c5c6ccccc6n2c5c31)CNC4=O [Lestaurtinib] + COc1cc2c(Oc3ccc4[nH]c(C)cc4c3F)ncnc2cc1OCCCN1CCCC1 [cediranib] (first compound 0.004 µM, partner dose 0.4 µM) | 150% | 38.8% | 191% | 90.1% | 126% | 50.8% | 85.7% | 16.4% | 59.7%
13 | N.N.[Cl][Pt][Cl] [cisplatin] + Cc1ccc(NC(=O)c2cccc(N(C)C)c2)cc1NC(=O)c1ccc(O)cc1 [ZM336372] (first compound 1.6 µM, partner dose 2 µM) | 94.6% | 65% | 79.7% | 42.8% | 58% | 148% | 156% | 120% | 70.4%
14 | Cn1cc(C2=C(c3cn(C4CCN(Cc5ccccn5)CC4)c4ccccc34)C(=O)NC2=O)c2ccccc21 [Enzastaurin] + O=C(CCCCCCC(=O)Nc1ccccc1)NO [vorinostat] (first compound 0.8 µM, partner dose 0.08 µM) | 149% | 29.4% | 60% | 122% | 89.2% | 101% | 93.6% | 62.3% | 34.8%
15 | N.N.[Cl][Pt][Cl] [cisplatin] + O=C(O)c1ccc(-c2c[nH]c3ncc(-c4ccccc4)cc23)cc1C1CCCC1 [GSK650394] (first compound 1.6 µM, partner dose 0.16 µM) | 55.5% | 121% | 70.4% | 109% | 376% | 107% | – | 53.7% | 83.3%
16 | Cn1cc(C2=C(c3cn(C4CCN(Cc5ccccn5)CC4)c4ccccc34)C(=O)NC2=O)c2ccccc21 [Enzastaurin] + C[C@@H]1CCN(C(=O)CC#N)C[C@@H]1N(C)c1ncnc2[nH]ccc12 [CP690550] (first compound 0.8 µM, partner dose 1 µM) | 48.9% | 45.9% | 83.2% | 59.3% | 84.2% | 91.7% | 97.7% | 138% | 369%
17 | Nc1ccn([C@@H]2O[C@H](CO)[C@@H](O)C2(F)F)c(=O)n1 [gemcitabine] + Cc1cc(SCc2sc(-c3ccc(C(F)(F)F)c(F)c3)nc2C)ccc1OCC(=O)O [GW0742] (first compound 0.0004 µM, partner dose 2 µM) | 85% | 191% | 150% | 102% | 84.1% | 151% | – | 368% | –
18 | C[As](C)SC[C@H](NC(=O)CC[C@H](N)C(=O)O)C(=O)NCC(=O)O [Darinaparsin] + OCCn1cc(-c2cnc3nnn(Cc4ccc5ncccc5c4)c3n2)cn1 [PF04217903] (first compound 0.4 µM, partner dose 1 µM) | 80.2% | 84.6% | 144% | 46.3% | 60.5% | 96.4% | 64.3% | 52.2% | 126%
19 | Cn1cc(C2=C(c3cn(C4CCN(Cc5ccccn5)CC4)c4ccccc34)C(=O)NC2=O)c2ccccc21 [Enzastaurin] + O=C(Nc1cccc(Cl)c1)Nc1ncc(CCNc2ncnc3ccsc23)s1 [SNS314] (first compound 0.8 µM, partner dose 0.0008 µM) | 107% | 245% | 95.4% | 114% | 87.4% | 54.2% | 96% | 166% | 56.1%
20 | Cn1cc(C2=C(c3cn(C4CCN(Cc5ccccn5)CC4)c4ccccc34)C(=O)NC2=O)c2ccccc21 [Enzastaurin] + Cc1ccc(NC(=O)c2cccc(N(C)C)c2)cc1NC(=O)c1ccc(O)cc1 [ZM336372] (first compound 0.8 µM, partner dose 2 µM) | 64% | 46.5% | 106% | 43.3% | 43.8% | 47.2% | 428% | 41.2% | 106%

Individual results from the entries so far.
N.N.[Cl][Pt][Cl] [cisplatin] + O=C(CCCCCCC(=O)Nc1ccccc1)NO [vorinostat] (first compound 1.6 µM, partner dose 0.08 µM) – cleaved PARP positive nuclei fraction (G361): 74.3%
C[C@]12O[C@H](C[C@]1(O)CO)n1c3ccccc3c3c4c(c5c6ccccc6n2c5c31)CNC4=O [Lestaurtinib] + CO[C@@H]1[C@H](N(C)C(=O)c2ccccc2)C[C@H]2O[C@]1(C)n1c3ccccc3c3c4c(c5c6ccccc6n2c5c31)C(=O)NC4 [Midostaurin] (first compound 0.004 µM, partner dose 0.08 µM) – cleaved PARP positive nuclei fraction (G361): 120%
